Assay results from PMC10213629 (2023).
No constants are given. Whether binding was seen depends on the method and setting.

By UniProt entry, the sequences of proteins in these tests, tags left out.
UniProt Q51380: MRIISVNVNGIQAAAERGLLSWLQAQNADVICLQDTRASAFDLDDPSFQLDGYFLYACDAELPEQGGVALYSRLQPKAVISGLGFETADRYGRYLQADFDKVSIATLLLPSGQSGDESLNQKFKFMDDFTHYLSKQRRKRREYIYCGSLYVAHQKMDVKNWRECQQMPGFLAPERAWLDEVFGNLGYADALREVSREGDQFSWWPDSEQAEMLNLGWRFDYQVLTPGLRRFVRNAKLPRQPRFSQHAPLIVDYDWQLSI
UniProt Q9HZ71: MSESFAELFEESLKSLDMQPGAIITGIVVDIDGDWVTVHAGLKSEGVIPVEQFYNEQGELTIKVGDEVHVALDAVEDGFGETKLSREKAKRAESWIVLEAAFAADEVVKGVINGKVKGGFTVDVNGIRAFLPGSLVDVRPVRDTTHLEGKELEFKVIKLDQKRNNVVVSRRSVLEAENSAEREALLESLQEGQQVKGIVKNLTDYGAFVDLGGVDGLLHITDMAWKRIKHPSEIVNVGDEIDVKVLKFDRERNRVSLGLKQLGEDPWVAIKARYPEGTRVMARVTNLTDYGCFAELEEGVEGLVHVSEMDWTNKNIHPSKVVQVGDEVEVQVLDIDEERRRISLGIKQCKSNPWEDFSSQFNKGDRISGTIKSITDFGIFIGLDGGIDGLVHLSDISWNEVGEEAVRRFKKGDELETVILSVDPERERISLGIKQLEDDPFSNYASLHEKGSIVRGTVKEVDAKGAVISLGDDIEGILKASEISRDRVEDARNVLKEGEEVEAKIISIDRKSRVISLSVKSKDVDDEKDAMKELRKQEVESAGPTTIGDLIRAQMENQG

Biological target: Crc (catabolite repression control protein), His-tag removed (Pseudomonas aeruginosa PAO1) (UniProt Q51380)
Assay: grating-coupled interferometry; Crc immobilised; Hfq without RNA or ribosomal protein S1 as analyte (negative controls); ES-buffer, 25°C; both purified

- binding: no binding
Substance: ribosomal protein S1 (from UniProt Q9HZ71 1-559)
